Reference: the supplement of paper PMC10849652
This is one part of the list.

Amino acid sequences for entries named in this document (tags omitted). A change or cut given only in a name is not applied to a line headed by its entry.
UniProt P28370, whole entry, looked up: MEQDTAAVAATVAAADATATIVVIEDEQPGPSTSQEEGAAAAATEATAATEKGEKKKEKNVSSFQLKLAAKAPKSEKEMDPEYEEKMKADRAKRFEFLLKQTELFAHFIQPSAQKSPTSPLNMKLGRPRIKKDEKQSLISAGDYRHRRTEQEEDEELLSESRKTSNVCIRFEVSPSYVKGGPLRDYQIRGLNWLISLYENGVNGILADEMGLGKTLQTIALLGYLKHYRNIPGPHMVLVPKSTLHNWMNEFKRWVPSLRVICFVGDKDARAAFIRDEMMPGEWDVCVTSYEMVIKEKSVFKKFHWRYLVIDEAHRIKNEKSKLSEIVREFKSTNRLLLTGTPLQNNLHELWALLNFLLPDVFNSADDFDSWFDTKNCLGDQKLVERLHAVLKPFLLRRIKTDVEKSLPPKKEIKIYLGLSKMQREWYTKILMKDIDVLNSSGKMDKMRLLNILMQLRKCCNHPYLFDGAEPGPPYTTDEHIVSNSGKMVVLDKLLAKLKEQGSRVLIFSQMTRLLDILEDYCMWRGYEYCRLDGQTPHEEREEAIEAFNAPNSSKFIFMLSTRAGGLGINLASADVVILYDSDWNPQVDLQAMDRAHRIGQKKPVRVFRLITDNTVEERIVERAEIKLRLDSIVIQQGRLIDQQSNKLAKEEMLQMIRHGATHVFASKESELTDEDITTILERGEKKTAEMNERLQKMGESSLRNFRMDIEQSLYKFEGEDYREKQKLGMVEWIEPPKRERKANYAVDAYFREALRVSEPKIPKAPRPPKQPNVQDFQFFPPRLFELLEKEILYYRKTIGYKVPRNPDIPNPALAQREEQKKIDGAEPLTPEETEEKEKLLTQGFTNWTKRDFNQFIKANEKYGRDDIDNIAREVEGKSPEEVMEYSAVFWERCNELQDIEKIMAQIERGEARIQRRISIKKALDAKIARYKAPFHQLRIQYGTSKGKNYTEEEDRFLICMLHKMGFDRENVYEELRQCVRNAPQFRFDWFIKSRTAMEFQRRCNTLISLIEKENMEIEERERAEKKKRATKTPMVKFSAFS
UniProt Q15036: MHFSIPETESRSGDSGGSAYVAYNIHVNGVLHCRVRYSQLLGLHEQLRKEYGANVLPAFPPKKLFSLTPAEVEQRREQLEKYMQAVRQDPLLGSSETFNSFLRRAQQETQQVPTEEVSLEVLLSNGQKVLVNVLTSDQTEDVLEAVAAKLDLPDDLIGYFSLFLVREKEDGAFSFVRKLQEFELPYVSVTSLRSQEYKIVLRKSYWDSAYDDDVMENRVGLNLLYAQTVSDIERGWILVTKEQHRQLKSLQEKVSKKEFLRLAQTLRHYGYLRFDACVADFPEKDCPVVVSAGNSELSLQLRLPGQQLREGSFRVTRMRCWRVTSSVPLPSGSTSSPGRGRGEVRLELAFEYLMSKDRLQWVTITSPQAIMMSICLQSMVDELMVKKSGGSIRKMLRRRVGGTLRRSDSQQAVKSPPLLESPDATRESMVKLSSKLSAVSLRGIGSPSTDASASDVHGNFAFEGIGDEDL
UniProt O95149, whole entry, looked up: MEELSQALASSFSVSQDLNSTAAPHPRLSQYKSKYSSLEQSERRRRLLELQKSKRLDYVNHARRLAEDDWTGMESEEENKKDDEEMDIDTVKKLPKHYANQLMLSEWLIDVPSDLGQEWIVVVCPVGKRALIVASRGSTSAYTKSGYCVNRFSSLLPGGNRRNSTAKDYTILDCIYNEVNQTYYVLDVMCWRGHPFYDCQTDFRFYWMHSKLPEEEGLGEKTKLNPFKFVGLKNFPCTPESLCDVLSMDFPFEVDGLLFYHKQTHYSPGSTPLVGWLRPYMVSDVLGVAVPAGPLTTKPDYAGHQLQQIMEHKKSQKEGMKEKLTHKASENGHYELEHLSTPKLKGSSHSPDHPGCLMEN
UniProt Q92540: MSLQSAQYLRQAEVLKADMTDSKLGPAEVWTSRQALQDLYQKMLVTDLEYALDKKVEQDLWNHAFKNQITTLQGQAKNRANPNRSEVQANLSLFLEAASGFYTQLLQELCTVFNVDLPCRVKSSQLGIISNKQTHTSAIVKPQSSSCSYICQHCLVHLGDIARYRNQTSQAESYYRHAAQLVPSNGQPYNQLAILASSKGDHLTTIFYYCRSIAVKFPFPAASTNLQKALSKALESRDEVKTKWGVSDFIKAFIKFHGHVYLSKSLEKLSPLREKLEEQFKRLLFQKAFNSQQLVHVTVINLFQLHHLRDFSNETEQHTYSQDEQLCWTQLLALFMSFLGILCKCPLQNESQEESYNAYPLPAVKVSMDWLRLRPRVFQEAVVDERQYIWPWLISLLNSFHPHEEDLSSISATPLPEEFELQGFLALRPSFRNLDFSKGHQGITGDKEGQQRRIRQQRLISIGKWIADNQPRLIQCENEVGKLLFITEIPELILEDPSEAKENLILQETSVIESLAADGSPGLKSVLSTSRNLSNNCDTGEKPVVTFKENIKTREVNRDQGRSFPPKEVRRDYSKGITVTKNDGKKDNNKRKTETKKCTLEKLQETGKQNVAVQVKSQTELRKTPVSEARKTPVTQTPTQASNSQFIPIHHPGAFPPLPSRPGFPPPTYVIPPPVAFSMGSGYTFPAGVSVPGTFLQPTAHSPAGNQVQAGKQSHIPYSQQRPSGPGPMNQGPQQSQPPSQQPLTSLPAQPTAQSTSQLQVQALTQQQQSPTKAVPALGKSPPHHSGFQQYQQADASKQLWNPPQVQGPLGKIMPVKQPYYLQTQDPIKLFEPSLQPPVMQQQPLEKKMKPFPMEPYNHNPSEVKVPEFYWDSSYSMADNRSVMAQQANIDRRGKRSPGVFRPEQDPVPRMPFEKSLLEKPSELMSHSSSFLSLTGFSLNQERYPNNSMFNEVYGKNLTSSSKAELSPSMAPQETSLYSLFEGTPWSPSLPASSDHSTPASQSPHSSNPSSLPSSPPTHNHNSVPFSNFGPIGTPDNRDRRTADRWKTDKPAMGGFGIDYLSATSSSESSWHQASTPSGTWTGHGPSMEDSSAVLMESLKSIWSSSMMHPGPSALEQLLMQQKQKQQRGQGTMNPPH
UniProt Q15796, whole entry, looked up: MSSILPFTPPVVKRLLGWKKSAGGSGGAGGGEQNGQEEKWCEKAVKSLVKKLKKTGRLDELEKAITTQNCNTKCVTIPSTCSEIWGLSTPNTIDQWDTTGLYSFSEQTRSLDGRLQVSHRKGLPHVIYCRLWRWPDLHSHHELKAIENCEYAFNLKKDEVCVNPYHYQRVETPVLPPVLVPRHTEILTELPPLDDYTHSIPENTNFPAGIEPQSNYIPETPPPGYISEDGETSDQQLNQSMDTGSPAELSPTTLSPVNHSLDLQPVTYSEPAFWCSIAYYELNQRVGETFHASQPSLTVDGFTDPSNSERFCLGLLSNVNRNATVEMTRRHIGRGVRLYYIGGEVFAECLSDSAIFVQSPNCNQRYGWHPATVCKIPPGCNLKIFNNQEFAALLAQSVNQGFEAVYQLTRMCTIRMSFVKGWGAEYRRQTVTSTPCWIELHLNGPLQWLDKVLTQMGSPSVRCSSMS
UniProt Q8WU79: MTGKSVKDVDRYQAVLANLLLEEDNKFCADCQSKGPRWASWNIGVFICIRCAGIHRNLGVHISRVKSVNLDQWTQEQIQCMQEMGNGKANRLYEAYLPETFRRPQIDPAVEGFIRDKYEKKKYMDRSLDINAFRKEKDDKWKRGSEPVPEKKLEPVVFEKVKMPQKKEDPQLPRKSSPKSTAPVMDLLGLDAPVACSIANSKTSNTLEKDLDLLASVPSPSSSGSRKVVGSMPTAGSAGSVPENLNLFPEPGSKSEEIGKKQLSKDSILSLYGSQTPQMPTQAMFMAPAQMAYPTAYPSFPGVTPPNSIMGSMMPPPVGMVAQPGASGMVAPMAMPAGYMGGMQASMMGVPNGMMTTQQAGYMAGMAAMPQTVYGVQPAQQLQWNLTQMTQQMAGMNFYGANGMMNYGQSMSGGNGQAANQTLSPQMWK
UniProt Q9UNH7: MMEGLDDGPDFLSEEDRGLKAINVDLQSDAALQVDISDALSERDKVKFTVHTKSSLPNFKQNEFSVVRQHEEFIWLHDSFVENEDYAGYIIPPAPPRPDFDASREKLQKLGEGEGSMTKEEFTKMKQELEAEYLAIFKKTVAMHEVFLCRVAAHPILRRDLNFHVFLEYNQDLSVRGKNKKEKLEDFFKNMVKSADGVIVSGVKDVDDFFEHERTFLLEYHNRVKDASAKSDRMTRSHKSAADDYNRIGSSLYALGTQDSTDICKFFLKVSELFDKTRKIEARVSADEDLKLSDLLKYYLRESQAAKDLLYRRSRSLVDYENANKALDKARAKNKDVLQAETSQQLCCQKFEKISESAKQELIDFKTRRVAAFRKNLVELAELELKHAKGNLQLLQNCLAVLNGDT
UniProt Q9Y5X3: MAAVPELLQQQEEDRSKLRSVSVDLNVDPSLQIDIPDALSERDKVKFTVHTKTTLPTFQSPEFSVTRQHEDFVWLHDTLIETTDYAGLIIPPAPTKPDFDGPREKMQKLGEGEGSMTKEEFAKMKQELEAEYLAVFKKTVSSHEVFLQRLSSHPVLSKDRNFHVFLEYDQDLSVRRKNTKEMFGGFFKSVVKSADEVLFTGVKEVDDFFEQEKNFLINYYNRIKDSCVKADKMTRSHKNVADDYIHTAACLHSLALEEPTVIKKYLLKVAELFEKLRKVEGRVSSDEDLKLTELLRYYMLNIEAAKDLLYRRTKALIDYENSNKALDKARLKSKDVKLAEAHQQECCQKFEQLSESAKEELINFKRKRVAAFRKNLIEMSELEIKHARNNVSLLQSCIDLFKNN
UniProt O00193: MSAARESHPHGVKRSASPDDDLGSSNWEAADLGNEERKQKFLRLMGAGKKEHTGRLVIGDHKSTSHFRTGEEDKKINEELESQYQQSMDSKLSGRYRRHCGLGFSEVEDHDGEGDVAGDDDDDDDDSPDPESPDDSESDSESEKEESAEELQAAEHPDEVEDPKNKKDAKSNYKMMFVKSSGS
UniProt O60271: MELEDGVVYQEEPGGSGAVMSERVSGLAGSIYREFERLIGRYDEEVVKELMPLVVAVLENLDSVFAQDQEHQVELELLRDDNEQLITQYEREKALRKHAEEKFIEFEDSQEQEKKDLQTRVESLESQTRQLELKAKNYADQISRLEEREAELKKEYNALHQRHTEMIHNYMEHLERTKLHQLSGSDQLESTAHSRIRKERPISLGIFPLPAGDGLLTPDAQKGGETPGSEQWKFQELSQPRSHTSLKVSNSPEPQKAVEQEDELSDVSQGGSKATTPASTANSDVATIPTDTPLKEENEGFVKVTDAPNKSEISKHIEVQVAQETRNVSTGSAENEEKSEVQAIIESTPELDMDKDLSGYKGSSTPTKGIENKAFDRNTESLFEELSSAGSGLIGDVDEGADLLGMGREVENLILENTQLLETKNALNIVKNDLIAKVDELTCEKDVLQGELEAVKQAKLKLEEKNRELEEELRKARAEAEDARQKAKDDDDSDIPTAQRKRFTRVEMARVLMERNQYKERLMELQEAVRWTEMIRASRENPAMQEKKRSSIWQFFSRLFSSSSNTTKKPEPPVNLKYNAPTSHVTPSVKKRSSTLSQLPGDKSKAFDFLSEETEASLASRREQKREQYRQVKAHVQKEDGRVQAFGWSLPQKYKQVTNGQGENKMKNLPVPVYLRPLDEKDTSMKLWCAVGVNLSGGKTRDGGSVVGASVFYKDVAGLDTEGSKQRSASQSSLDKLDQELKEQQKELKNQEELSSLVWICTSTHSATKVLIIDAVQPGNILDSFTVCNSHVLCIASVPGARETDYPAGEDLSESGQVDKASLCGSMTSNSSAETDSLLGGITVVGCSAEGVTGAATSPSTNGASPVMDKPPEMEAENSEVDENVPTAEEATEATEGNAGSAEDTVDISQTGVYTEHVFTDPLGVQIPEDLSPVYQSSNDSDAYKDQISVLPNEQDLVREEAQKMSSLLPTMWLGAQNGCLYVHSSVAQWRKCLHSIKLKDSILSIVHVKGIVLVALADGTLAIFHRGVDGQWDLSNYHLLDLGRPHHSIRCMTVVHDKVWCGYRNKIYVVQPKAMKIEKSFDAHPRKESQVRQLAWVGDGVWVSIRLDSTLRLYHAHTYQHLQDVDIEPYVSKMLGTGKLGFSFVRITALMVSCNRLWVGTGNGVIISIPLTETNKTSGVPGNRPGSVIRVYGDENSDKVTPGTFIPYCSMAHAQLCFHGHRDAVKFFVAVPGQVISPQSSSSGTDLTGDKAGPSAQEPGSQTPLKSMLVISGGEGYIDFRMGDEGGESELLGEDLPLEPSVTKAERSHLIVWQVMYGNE
UniProt P08579, whole entry, looked up: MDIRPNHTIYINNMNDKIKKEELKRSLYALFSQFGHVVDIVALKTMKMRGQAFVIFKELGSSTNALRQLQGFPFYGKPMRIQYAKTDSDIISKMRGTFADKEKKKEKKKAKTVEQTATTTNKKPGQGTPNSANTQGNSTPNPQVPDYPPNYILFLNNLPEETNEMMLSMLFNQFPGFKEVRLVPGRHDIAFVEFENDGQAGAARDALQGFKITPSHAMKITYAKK

Key:
Assay in all cases: log2 fold change, soluble protein after heating vs DMSO (PISA); higher = thermal stabilisation; K562 cells, 10 uM, 30 min; active = over 0.2 and 3.5 SD of the protein, either way, in both replicates (recomputed)
[1] = compound: CC1=C(C=C(C=C1)NC(=O)C2=CC(=CC=C2)C(C)(C)C#N)NC3=CC4=C(C=C3)N=CN(C4=O)C
Summary of the method: (§1)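 Values are thermal stability changes relative to control samples and are taken from duplicates. They are stated as log2 fold changes. Before quantification by TMTpro 16plex LC-MS/MS with equalised channel sums, K562 cells at 2×10^6 cells/mL were treated with 10 μM compound for 30 min, heated in aliquots for 3 min across 48°C-58°C, pooled, extracted in PBS with 0.5% NP-40 at 4°C, and centrifuged at 21,000xg for 90 min to give the soluble supernatant.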

[2] = compound: CC1=C(C=C(C=C1)NC(=O)C2=CC(=CC=C2)N(C)C)NC(=O)C3=CC=C(C=C3)O
Summary of the method: as §1

[3] = compound: CC1=CC=C(C=C1)SC2=C3C=C(SC3=CN=C2)C(=O)N
Summary of the method: as §1

[4] = compound: CC1=NC(=CC=C1)C2=C(N=C(N2)C(C)(C)C)C3=CC4=NC=CN=C4C=C3
Summary of the method: as §1

Nexturastat A = compound: CCCCN(Cc1ccc(C(=O)NO)cc1)C(=O)Nc1ccccc1 [Nexturastat A]
Summary of the method: as §1

vemurafenib = compound: CCCS(=O)(=O)Nc1ccc(F)c(C(=O)c2c[nH]c3ncc(-c4ccc(Cl)cc4)cc23)c1F [vemurafenib]
Summary of the method: as §1

[5] = compound: CCCS(=O)(=O)Nc1ccc(F)c(C(=O)c2c[nH]c3ncc(Cl)cc23)c1F
Summary of the method: as §1

[6] = compound: CCCc1cc(C)[nH]c(=O)c1CNC(=O)c1cc(-c2ccnc(N3CCN(C)CC3)c2)cc2c1cnn2C(C)C
Summary of the method: as §1

givinostat = compound: CCN(CC)Cc1ccc2cc(COC(=O)Nc3ccc(C(=O)NO)cc3)ccc2c1 [givinostat]
Summary of the method: as §1

barasertib = compound: CCN(CCCOc1ccc2c(Nc3cc(CC(=O)Nc4cccc(F)c4)[nH]n3)ncnc2c1)CCOP(=O)(O)O [barasertib]
Summary of the method: as §1

[7] = compound: CC[C@@H]1C(=O)N(C)c2cnc(Nc3ccc(C(=O)NC4CCN(C)CC4)cc3OC)nc2N1C1CCCC1
Summary of the method: as §1

volasertib = compound: CC[C@@H]1C(=O)N(C)c2cnc(Nc3ccc(C(=O)N[C@H]4CC[C@H](N5CCN(CC6CC6)CC5)CC4)cc3OC)nc2N1C(C)C [volasertib]
Summary of the method: as §1

epoxomicin = compound: CC[C@H](C)[C@@H](C(=O)N[C@@H]([C@@H](C)O)C(=O)N[C@@H](CC(C)C)C(=O)[C@]1(CO1)C)NC(=O)[C@H]([C@@H](C)CC)N(C)C(=O)C [epoxomicin]
Summary of the method: as §1

[8] = compound: CCn1c(C(=O)N(C2CC2)C2CC2)cc2c3c(ncn3C)c(Nc3cc(C)n(C)n3)nc21
Summary of the method: as §1

[9] = compound: CCn1cc(-c2ccnc3[nH]c(-c4cccc(CN(C)C)c4)cc23)c(-c2ccc(NC(=O)N(C)C)cc2)n1
Summary of the method: as §1

[10] = compound: CN(C)CC(=O)Nc1ccc2[nH]c(=O)c3ccccc3c2c1
Summary of the method: as §1

rosiglitazone = compound: CN(CCOC1=CC=C(C=C1)C[C@H]2C(=O)NC(=O)S2)C3=CC=CC=N3 (racemic) [rosiglitazone]
Summary of the method: as §1

[11] = compound: CN1C2=C(C3=C1C(=O)N(N=C3)CC4=CC(=CC=C4)N)SC(=C2)S(=O)C
Summary of the method: as §1

[12] = compound: CN1CCC(CNc2ccc3ncc(-c4cccc(OC(F)(F)F)c4)n3n2)CC1
Summary of the method: as §1

[13] = compound: CC[C@H](C)N1C=C(C2=C(C=C(C=C21)C3=CN=C(C=C3)N4CCNCC4)C(=O)NCC5=C(C=C(NC5=O)C)C)C
Summary of the method: as §1

| Target | log2 fold change [1] | log2 fold change [2] | log2 fold change [3] | log2 fold change [4] | log2 fold change (Nexturastat A) | log2 fold change (vemurafenib) | log2 fold change [5] | log2 fold change [6] | log2 fold change (givinostat) | log2 fold change (barasertib) | log2 fold change [7] | log2 fold change (volasertib) | log2 fold change (epoxomicin) | log2 fold change [8] | log2 fold change [9] | log2 fold change [10] | log2 fold change (rosiglitazone) | log2 fold change [11] | log2 fold change [12] | log2 fold change [13] |
| --- | --- | --- | --- | --- | --- | --- | --- | --- | --- | --- | --- | --- | --- | --- | --- | --- | --- | --- | --- | --- |
| SMARCA1 (UniProt P28370) | inactive: 0.013 | inactive: 0.018 | inactive: 0 | inactive: -0.046 | inactive: 0.089 | inactive: 0.134 | inactive: 0.046 | inactive: -0.062 | inactive: 0.172 | inactive: 0.028 | inactive: -0.1 | inactive: -0.457 | inactive: 0.023 | inactive: -0.008 | inactive: -0.054 | inactive: -0.043 | inactive: 0 | inactive: 0.024 | inactive: 0.031 | – |
| SNX17 (UniProt Q15036) | inactive: -0.043 | inactive: 0.036 | inactive: 0.095 | inactive: -0.058 | inactive: 0.102 | inactive: 0.053 | inactive: 0.003 | – | inactive: 0.246 | inactive: 0.111 | inactive: 0 | inactive: -0.143 | inactive: -0.007 | inactive: 0.017 | inactive: 0.049 | inactive: 0.034 | inactive: 0.008 | inactive: 0.205 | inactive: 0.066 | inactive: -0.172 |
| SNUPN (UniProt O95149) | inactive: -0.078 | inactive: 0.052 | inactive: 0.013 | inactive: 0.026 | inactive: -0.037 | inactive: -0.024 | inactive: -0.065 | inactive: 0.013 | inactive: -0.017 | inactive: 0.024 | inactive: -0.133 | active: -0.296 | inactive: -0.013 | – | inactive: -0.076 | inactive: 0.003 | – | inactive: -0.01 | inactive: -0.004 | inactive: 0.014 |
| SMG7 isoform 4 (UniProt Q92540) | inactive: -0.085 | inactive: 0.034 | inactive: -0.064 | inactive: -0.089 | inactive: 0.112 | inactive: -0.093 | inactive: -0.287 | – | inactive: 0.248 | inactive: -0.067 | inactive: -0.046 | inactive: -0.195 | inactive: -0.054 | inactive: 0 | inactive: 0.053 | inactive: -0.028 | inactive: 0.089 | inactive: 0.099 | inactive: -0.187 | inactive: 0.138 |
| SMAD2 (UniProt Q15796) | inactive: 0.036 | inactive: -0.034 | inactive: 0.01 | inactive: 0.052 | inactive: -0.382 | inactive: -0.016 | inactive: 0.04 | inactive: -0.027 | inactive: 0.047 | inactive: 0.047 | inactive: -0.067 | active: -0.347 | inactive: 0.11 | – | inactive: -0.014 | inactive: 0.014 | – | inactive: -0.158 | inactive: -0.018 | inactive: 0.065 |
| SMCHD1 (UniProt A6NHR9) | inactive: -0.067 | inactive: 0 | inactive: 0.089 | inactive: -0.039 | inactive: 0.126 | inactive: 0.057 | inactive: 0.141 | inactive: 0.155 | inactive: 0.101 | inactive: -0.168 | inactive: 0.009 | inactive: -0.326 | inactive: -0.189 | – | inactive: -0.085 | inactive: 0.032 | – | inactive: -0.023 | inactive: -0.144 | inactive: 0.098 |
| SMAP2 (UniProt Q8WU79) | inactive: -0.033 | inactive: -0.063 | inactive: 0.016 | inactive: -0.054 | inactive: 0.029 | inactive: 0.058 | inactive: 0.055 | inactive: 0.043 | inactive: 0.04 | inactive: 0.052 | inactive: -0.054 | active: -0.3 | inactive: 0.056 | – | inactive: -0.009 | inactive: 0.008 | – | inactive: -0.021 | inactive: 0.015 | inactive: 0.131 |
| SNX6 (UniProt Q9UNH7) | inactive: -0.04 | inactive: -0.016 | inactive: 0.019 | inactive: 0.021 | inactive: -0.025 | inactive: -0.003 | inactive: 0.076 | inactive: 0.006 | inactive: 0.077 | inactive: 0.079 | inactive: -0.142 | inactive: -0.047 | inactive: 0.015 | – | inactive: -0.131 | inactive: 0.005 | – | inactive: 0.016 | active: -0.77 | inactive: 0.117 |
| SNX5 (UniProt Q9Y5X3) | inactive: 0.001 | inactive: 0.015 | inactive: 0.009 | inactive: 0.039 | inactive: -0.074 | inactive: 0.009 | inactive: 0.035 | inactive: -0.031 | inactive: 0.013 | inactive: 0.04 | inactive: -0.136 | inactive: -0.129 | inactive: 0.05 | – | inactive: -0.099 | inactive: 0.027 | – | inactive: -0.001 | active: -0.289 | inactive: 0.076 |
| SMAP (UniProt O00193) | inactive: -0.018 | inactive: -0.002 | inactive: -0.03 | inactive: 0.062 | inactive: -0.059 | inactive: -0.006 | inactive: 0.001 | inactive: -0.107 | inactive: -0.02 | inactive: 0.008 | inactive: -0.024 | inactive: 0.023 | inactive: 0.06 | – | inactive: 0.014 | inactive: -0.011 | – | inactive: -0.088 | inactive: -0.045 | inactive: -0.043 |
| SPAG9 (UniProt O60271) | inactive: 0.023 | inactive: -0.045 | inactive: 0.002 | inactive: 0.004 | inactive: 0.039 | inactive: 0.028 | inactive: 0.053 | inactive: 0.014 | inactive: 0.06 | inactive: 0.037 | inactive: -0.039 | inactive: -0.168 | inactive: 0.028 | – | inactive: 0.02 | inactive: 0.02 | – | inactive: -0.009 | inactive: -0.203 | inactive: 0.046 |
| SLIRP (UniProt Q9GZT3) | inactive: 0.175 | inactive: 0.008 | inactive: -0.035 | inactive: 0.039 | inactive: 0.286 | inactive: 0.028 | inactive: -0.031 | inactive: 0.214 | inactive: 0.113 | inactive: 0.019 | inactive: 0.05 | inactive: 0.343 | inactive: 0.302 | – | inactive: 0.02 | inactive: 0.08 | – | inactive: 0.092 | inactive: 0.06 | inactive: -0.093 |
| SMARCA4 (UniProt P51532) | inactive: 0.039 | inactive: -0.111 | inactive: -0.296 | inactive: -0.028 | inactive: 0.351 | inactive: -0.261 | inactive: -0.556 | inactive: -0.084 | inactive: 0.159 | inactive: 0.137 | inactive: 0.019 | inactive: 0.121 | inactive: 0 | – | inactive: 0.119 | inactive: -0.191 | – | inactive: 0.177 | inactive: -0.046 | – |
| SNX9 (UniProt Q9Y5X1) | inactive: 0.018 | inactive: -0.031 | inactive: -0.002 | inactive: 0.03 | inactive: 0.048 | inactive: 0.006 | inactive: 0.041 | inactive: -0.027 | inactive: -0.099 | inactive: 0.007 | inactive: -0.125 | active: -0.309 | inactive: -0.02 | – | inactive: -0.021 | inactive: -0.006 | – | inactive: 0.009 | inactive: -0.137 | inactive: 0.04 |
| SNRPB2 (UniProt P08579) | inactive: -0.016 | inactive: 0.007 | inactive: -0.026 | inactive: -0.014 | inactive: -0.015 | inactive: -0.036 | inactive: -0.042 | inactive: -0.048 | inactive: -0.051 | inactive: -0.056 | inactive: 0.176 | inactive: 0.174 | inactive: -0.05 | – | inactive: 0.069 | inactive: -0.063 | – | inactive: -0.008 | inactive: 0.098 | inactive: -0.069 |
| SON isoform 9 (UniProt P18583) | inactive: 0.01 | inactive: 0.146 | inactive: -0.103 | inactive: -0.051 | inactive: -0.055 | inactive: 0.002 | inactive: 0.101 | – | inactive: 0.244 | inactive: -0.033 | inactive: 0.109 | inactive: -0.251 | inactive: -0.173 | inactive: 0.054 | inactive: 0.084 | inactive: 0.017 | inactive: 0.114 | inactive: 0.188 | inactive: 0.209 | inactive: 0.067 |

An excerpt from above with just log2 fold change (vemurafenib), log2 fold change (rosiglitazone) and log2 fold change (epoxomicin):
Target,log2 fold change (vemurafenib),log2 fold change (rosiglitazone),log2 fold change (epoxomicin)
SNX5 (UniProt Q9Y5X3),inactive: 0.009,–,inactive: 0.05
SMAP (UniProt O00193),inactive: -0.006,–,inactive: 0.06
